Here are results for three molecules from publication doi:10.1101/2025.09.09.675133.

Results are given in words; binding and its absence hold for the method and conditions named. In cells and extracts the contact can be indirect. A yes stands for co-enrichment or nearness to the bait. Other partners may have been found. A no says only that the protein was not detected with the bait. Tags and fused reporters may be left off the sequences shown.

In one assay the target is T1, V5-JTB (human) (UniProt O76095).
T1 sequence: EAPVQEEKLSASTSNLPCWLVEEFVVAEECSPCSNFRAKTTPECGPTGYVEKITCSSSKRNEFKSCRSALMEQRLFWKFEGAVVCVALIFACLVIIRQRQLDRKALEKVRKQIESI
The assay can be described thus: affinity purification with mass spectrometry.

The next assay has as its target T2, V5-SYS1 (human) (UniProt Q8N2H4).
T2 sequence: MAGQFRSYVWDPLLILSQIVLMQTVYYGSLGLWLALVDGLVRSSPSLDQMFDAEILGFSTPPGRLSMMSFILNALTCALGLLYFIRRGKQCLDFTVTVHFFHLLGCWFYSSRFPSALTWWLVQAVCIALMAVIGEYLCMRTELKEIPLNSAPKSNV
Briefly: affinity purification with mass spectrometry.

B1: ARFRP1 (protein, UniProt Q13795 1-201)
chain: MYTLLSGLYKYMFQKDEYCILILGLDNAGKTTFLEQSKTRFNKNYKGMSLSKITTTVGLNIGTVDVGKARLMFWDLGGQEELQSLWDKYYAECHGVIYVIDSTDEERLAESKQAFEKVVTSEALCGVPVLVLANKQDVETCLSIPDIKTAFSDCTSKIGRRDCLTQACSALTGKGVREGIEWMVKCVVRNVHRPPRQRDIT
For B1, the binding result with V5-JTB (human) is reported as “binds”.

B2: JTB (protein, UniProt O76095 31-146)
chain: T1 sequence
As to B2, the binding result with V5-SYS1 (human) is recorded as “binds”.

B3: ARL1 (protein, UniProt P40616 1-181)
chain: MGGFFSSIFSSLFGTREMRILILGLDGAGKTTILYRLQVGEVVTTIPTIGFNVETVTYKNLKFQVWDLGGQTSIRPYWRCYYSNTDAVIYVVDSCDRDRIGISKSELVAMLEEEELRKAILVVFANKQDMEQAMTSSEMANSLGLPALKDRKWQIFKTSATKGTGLDEAMEWLVETLKSRQ
B3: the binding result in the assay with V5-JTB (human) and with V5-SYS1 (human) was “no binding” throughout.
